Experimental data as given in PubChem BioAssay AID298 (DTP/NCI, 2004).
The list does not hold the whole screen: it gathers tests that were run many times, whatever their T/C, doses with no T/C, and many T/C values between a quarter and a half above the control. Other doses and runs of a compound stand elsewhere. T/C is the treated group as % of the vehicle group. Schedule codes are those of the source, read here as Q, the interval in days (D) or hours (H), X, the number of doses. Some entries give survivors of the animals treated and no T/C: the source files T/C as zero there, which appears to mark a toxic dose or a test without result, not a measured value. Counts of survivors are from the toxicity check (mostly the fifth day) where no day follows; animals may have died later. Some entries were tested several times; the values are given in rising order.

Tested on: MX-1 breast xenograft, intrarenal, nude mice, tumor weight
Test: NCI In Vivo Anticancer Drug Screen. Data for tumor model Human Mammary Carcinoma MX-1 Xenograft (intrarenal inoculation) in NU/NU BALB/C (nude) mice
Settings: T/C endpoint: mean tumor weight change, higher T/C = larger tumour; for T/C: evaluated on day 11
Method in brief: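 T/C readout: treated-group measurement over vehicle-control measurement, using tumor size or survival in tumor-bearing mice.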

[1] = dose: 1200.0 mg/kg/injection, schedule: Q04DX003 (ip), vehicle: DMSO
[2] = dose: 600.0 mg/kg/injection, schedule: Q04DX003 (ip), vehicle: Klucel (hydroxypropylcellulose) (HPC)
[3] = dose: 1200.0 mg/kg/injection, schedule: Q04DX003 (ip), vehicle: Klucel (hydroxypropylcellulose) (HPC)
[4] = dose: 300.0 mg/kg/injection, schedule: Q04DX003 (ip), vehicle: saline with Tween-80
[5] = dose: 600.0 mg/kg/injection, schedule: Q04DX003 (ip), vehicle: saline with Tween-80
[6] = dose: 150.0 mg/kg/injection, schedule: Q04DX003 (ip), vehicle: saline with Tween-80
[7] = dose: 1200.0 mg/kg/injection, schedule: Q04DX003 (ip), vehicle: saline with Tween-80

For `CCCCNc1ccc2nnc(C)n2n1`, the survivor count (dose: 600.0 mg/kg/injection, schedule: Q04DX003 (ip), vehicle: DMSO) was 0 of 6 on day 11 and the survivor count [1] was 0 of 6 on day 11.

In the case of `CC1(C)COCN1COCCOCN1COCC1(C)C`, the T/C (dose: 100.0 mg/kg/injection, schedule: Q04DX003 (sc), vehicle: saline) is reported as 134 % of control and the survivor count (dose: 800.0 mg/kg/injection, schedule: Q04DX003 (sc), vehicle: saline) is reported as 0 of 6 on day 11.

With `CCNC=O` the T/C (dose: 100.0 mg/kg/injection, schedule: Q01DX010 (sc), vehicle: saline) was 142 % of control.

`C[n+]1ccc2cc(N)c3c4ccccc4sc3c2c1` was tested, and the survivor count (dose: 50.0 mg/kg/injection, schedule: Q04DX003 (sc), vehicle: saline with Tween-80) was 0 of 6 on day 11 and the survivor count (dose: 100.0 mg/kg/injection, schedule: Q04DX003 (sc), vehicle: saline with Tween-80) was 0 of 6 on day 11.

`COc1ccc(CC2C(=O)NC(C)C(=O)N(C)C3Cc4ccc(cc4)Oc4cc(ccc4O)CC(C(=O)NC(C)C(=O)NC(C)C(=O)N2C)N(C)C3=O)cc1` (centres undefined) was tested, and the survivor count (dose: 48.0 mg/kg/injection, schedule: Q04DX003 (sc), vehicle: saline with Tween-80) was 0 of 6 on day 11.

`Nc1ccn([C@@H](C=O)O[C@@H](C=O)CO)c(=O)n1` was tested, and the survivor count (dose: 400.0 mg/kg/injection, schedule: Q04DX003 (sc), vehicle: saline) was 0 of 3 on day 11.

In the case of `N#Cc1ccc(NN=O)nc1`, the survivor count (dose: 100.0 mg/kg/injection, schedule: Q04DX003 (ip), vehicle: water) is reported as 2 of 6 on day 11.

With `CCC(=O)[O][Bi]([c]1ccccc1)[c]1ccccc1` the survivor count (dose: 50.0 mg/kg/injection, schedule: Q04DX003 (ip), vehicle: Klucel (hydroxypropylcellulose) (HPC)) was 0 of 6 on day 11, the survivor count (dose: 100.0 mg/kg/injection, schedule: Q04DX003 (ip), vehicle: Klucel (hydroxypropylcellulose) (HPC)) was 0 of 6 on day 11 and the survivor count (dose: 150.0 mg/kg/injection, schedule: Q04DX003 (ip), vehicle: Klucel (hydroxypropylcellulose) (HPC)) was 0 of 6 on day 11. The survivor count (dose: 300.0 mg/kg/injection, schedule: Q04DX003 (ip), vehicle: Klucel (hydroxypropylcellulose) (HPC)) was 0 of 6 on day 11, the survivor count [2] was 0 of 6 on day 11 and the survivor count [3] was 0 of 6 on day 11.

In the case of `C[C@@]1(CO)[C@H](O)CC[C@@]2(C)[C@H]1CC[C@H]1C[C@@H]3C[C@@]12CC[C@@]3(O)COC(=O)CN`, the survivor count (dose: 200.0 mg/kg/injection, schedule: Q04DX003 (ip), vehicle: saline + alcohol) is reported as 2 of 6 on day 11 and the survivor count (dose: 400.0 mg/kg/injection, schedule: Q04DX003 (ip), vehicle: saline + alcohol) is reported as 0 of 6 on day 11.

`COC(=O)C1C2CCCN2OC1(C)CO` (centres undefined) was tested, and the T/C (dose: 60.0 mg/kg/injection, schedule: Q01DX001 (ip), vehicle: saline) was 133 % of control and the T/C (dose: 120.0 mg/kg/injection, schedule: Q01DX001 (ip), vehicle: saline) was 142 % of control.

`N=C(N)c1ccc(N=NNc2ccc(C(=N)N)cc2)cc1` was tested, and the survivor count [4] was 0 of 6 on day 11 and the survivor count [5] was 0 of 6 on day 11.

In the case of `O=C1CNC(=O)N1CN1CCOCC1`, the survivor count [3] is reported as 2 of 6 on day 11.

For `CCCCCCCC(=O)O[C@H]1[C@H]2[C@@H](CC1(C)C)C(=O)[C@]13O[C@H]1C(=O)[C@]1(CO1)[C@]23C`, the survivor count (dose: 40.0 mg/kg/injection, schedule: Q04DX003 (ip), vehicle: saline with Tween-80) was 0 of 6 on day 11.

For `C/C(=N\NC(=S)N1CC2CCC(CC2)C1)c1nccs1`, the survivor count [6] was 2 of 6 on day 11, the survivor count [4] was 0 of 6 on day 11 and the survivor count [5] was 0 of 6 on day 11.

With `COc1cc(O)c2c(O)c3c(c4c2c1[C@]1(C4)C(C)=CCCC1(C)C)[C@H](O)[C@@]1(O)CC(=O)C(C(N)=O)=C(O)[C@@]1(O)C3=O` the survivor count [6] was 0 of 6 on day 11, the survivor count [4] was 0 of 6 on day 11 and the survivor count [5] was 0 of 6 on day 11. For the same molecule, the survivor count [7] was 0 of 6 on day 11.

For `S=C(N/N=C1/CCCC/C1=N/NC(=S)N1CCOCC1)N1CCOCC1`, the T/C (dose: 3.12 mg/kg/injection, schedule: Q04DX003 (ip), vehicle: saline with Tween-80) was 132 % of control, the survivor count (dose: 37.5 mg/kg/injection, schedule: Q04DX003 (ip), vehicle: saline with Tween-80) was 1 of 6 on day 11 and the survivor count (dose: 75.0 mg/kg/injection, schedule: Q04DX003 (ip), vehicle: saline with Tween-80) was 0 of 6 on day 11. The survivor count [6] was 0 of 6 on day 11 and the survivor count [4] was 0 of 6 on day 11.

For `CCN(CC)CC(=O)O[C@]1(CC)C(=O)OCc2c1cc1n(c2=O)Cc2cc3ccccc3nc2-1`, the survivor count (dose: 32.0 mg/kg/injection, schedule: Q04DX003 (ip), vehicle: other) was 1 of 6 on day 11 and the survivor count (dose: 32.0 mg/kg/injection, schedule: Q04DX003 (ip), vehicle: water) was 0 of 6 on day 11.

For `C=CCNC(=O)c1ccccc1SC(C)=O`, the survivor count [5] was 1 of 6 on day 11 and the survivor count [7] was 0 of 6 on day 11.

For `Oc1ccc(CCl)c2cccnc12`, the survivor count (dose: 600.0 mg/kg/injection, schedule: Q04DX003 (sc), vehicle: saline) was 0 of 6 on day 11.

For `[N-]=[N+]=CC(=O)CCC(NC(=O)OCc1ccccc1)C(=O)OCc1ccccc1` (centres undefined), the survivor count [2] was 3 of 6 on day 11 and the survivor count [3] was 0 of 6 on day 11.

With `CN=C(N)N/N=C(\C)c1ccc2sc3ccc(/C(C)=N/NC(N)=NC)cc3c2c1` the survivor count [5] was 0 of 6 on day 11 and the survivor count [7] was 0 of 6 on day 11.

`COc1cc2c(c(OC)c1OC)-c1ccc(OC)c(=O)cc1[C@@H](NC(C)=O)CC2` was tested, and the survivor count (dose: 4.0 mg/kg/injection, schedule: Q04DX003 (ip), vehicle: saline) was 0 of 6 on day 11 and 1 of 6 on day 11 and the survivor count (dose: 8.0 mg/kg/injection, schedule: Q04DX003 (ip), vehicle: saline) was 0 of 6 on day 11.

For `COc1ccc(-c2cc(C(=O)Nc3cc(C(F)(F)F)cc(C(F)(F)F)c3)c3ccccc3n2)cc1`, the survivor count [1] was 0 of 6 on day 11.

`CO[C@@]12[C@@H]3N[C@@H]3CN1C1=C(C(=O)C(NCC3CCCO3)=C(C)C1=O)[C@@H]2COC(N)=O` (some centres undefined) was tested, and the survivor count (dose: 50.0 mg/kg/injection, schedule: Q04DX003 (ip), vehicle: distilled water + Tween-80) was 0 of 6 on day 11 and the survivor count (dose: 100.0 mg/kg/injection, schedule: Q04DX003 (ip), vehicle: distilled water + Tween-80) was 0 of 6 on day 11.

In the case of `CC(C)c1cc(C(=O)O)c(O)c(C(C)C)c1.CC(C)c1cc(C(=O)O)c(O)c(C(C)C)c1.[Cu]`, the T/C (dose: 25.0 mg/kg/injection, schedule: Q04DX003 (ip), vehicle: saline with Tween-80) is reported as 126 % of control and the survivor count (dose: 200.0 mg/kg/injection, schedule: Q04DX003 (ip), vehicle: saline with Tween-80) is reported as 0 of 6 on day 11.

With `CN(C)CCCOc1nc2c(c(=O)n(C)c(=O)n2C)n1C` (tested in a mixture with another compound) the survivor count [2] was 0 of 6 on day 11.

`CC[C@@]1(O)C(=O)OCc2c1cc1n(c2=O)Cc2cc3ccccc3nc2-1` was tested, and the survivor count (dose: 40.0 mg/kg/injection, schedule: Q04DX003 (sc), vehicle: saline with Tween-80) was 0 of 6 on day 11 and the survivor count (dose: 80.0 mg/kg/injection, schedule: Q04DX003 (sc), vehicle: saline with Tween-80) was 0 of 6 on day 11 and 3 of 6 on day 11.

`CS(=O)(=O)c1ncc(Br)cn1` was tested, and the T/C (dose: 50.0 mg/kg/injection, schedule: Q01DX010 (sc), vehicle: distilled water + Tween-80) was 144 % of control and the T/C (dose: 100.0 mg/kg/injection, schedule: Q01DX010 (sc), vehicle: distilled water + Tween-80) was 147 % of control.

For `COc1cc2c[n+](C)c3c(c2cc1OC)Cc1cc2c(cc1-3)OCO2`, the survivor count [4] was 1 of 6 on day 11 and the survivor count [5] was 0 of 6 on day 11.
